# Results are given in words; binding and its absence hold for the method and conditions named. In cells and extracts the contact can be indirect. A yes stands for co-enrichment or nearness to the bait. Other partners may have been found.
# Protein sequences, listed by entry. Tags and fused reporters are not part of them.
# UniProt P14902: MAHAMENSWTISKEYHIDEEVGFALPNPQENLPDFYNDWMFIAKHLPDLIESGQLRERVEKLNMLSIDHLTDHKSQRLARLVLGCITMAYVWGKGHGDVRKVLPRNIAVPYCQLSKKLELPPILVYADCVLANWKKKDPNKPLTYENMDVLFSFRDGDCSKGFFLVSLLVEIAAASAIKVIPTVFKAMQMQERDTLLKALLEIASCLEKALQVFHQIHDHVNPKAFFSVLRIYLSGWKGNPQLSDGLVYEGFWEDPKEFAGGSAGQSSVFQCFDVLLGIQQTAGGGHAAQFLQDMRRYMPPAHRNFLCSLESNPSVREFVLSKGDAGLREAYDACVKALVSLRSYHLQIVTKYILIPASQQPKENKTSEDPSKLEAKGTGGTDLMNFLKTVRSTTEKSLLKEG
# UniProt P45974: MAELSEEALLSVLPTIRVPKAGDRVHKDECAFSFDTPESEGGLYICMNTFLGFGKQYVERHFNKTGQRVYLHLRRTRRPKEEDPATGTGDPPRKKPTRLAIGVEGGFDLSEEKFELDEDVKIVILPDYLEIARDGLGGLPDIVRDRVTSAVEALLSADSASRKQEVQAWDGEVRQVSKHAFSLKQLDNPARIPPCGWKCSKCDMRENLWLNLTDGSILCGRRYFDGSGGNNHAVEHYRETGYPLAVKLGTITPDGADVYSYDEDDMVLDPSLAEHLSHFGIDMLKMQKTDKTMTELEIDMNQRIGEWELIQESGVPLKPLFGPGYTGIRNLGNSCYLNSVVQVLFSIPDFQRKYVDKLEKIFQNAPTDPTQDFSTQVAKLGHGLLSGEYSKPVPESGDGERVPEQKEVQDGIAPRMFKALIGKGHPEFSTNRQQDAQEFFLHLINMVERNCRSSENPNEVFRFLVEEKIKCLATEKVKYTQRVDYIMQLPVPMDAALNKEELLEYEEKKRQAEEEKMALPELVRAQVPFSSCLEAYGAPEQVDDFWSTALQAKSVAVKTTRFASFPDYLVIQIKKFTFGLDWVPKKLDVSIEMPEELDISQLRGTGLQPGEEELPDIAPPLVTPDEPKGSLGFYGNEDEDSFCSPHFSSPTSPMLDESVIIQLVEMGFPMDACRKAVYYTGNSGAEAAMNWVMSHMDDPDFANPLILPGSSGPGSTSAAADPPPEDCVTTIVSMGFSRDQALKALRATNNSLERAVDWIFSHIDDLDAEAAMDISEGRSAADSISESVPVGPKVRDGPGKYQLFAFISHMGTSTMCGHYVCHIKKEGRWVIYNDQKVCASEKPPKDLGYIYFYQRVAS
# UniProt Q93009: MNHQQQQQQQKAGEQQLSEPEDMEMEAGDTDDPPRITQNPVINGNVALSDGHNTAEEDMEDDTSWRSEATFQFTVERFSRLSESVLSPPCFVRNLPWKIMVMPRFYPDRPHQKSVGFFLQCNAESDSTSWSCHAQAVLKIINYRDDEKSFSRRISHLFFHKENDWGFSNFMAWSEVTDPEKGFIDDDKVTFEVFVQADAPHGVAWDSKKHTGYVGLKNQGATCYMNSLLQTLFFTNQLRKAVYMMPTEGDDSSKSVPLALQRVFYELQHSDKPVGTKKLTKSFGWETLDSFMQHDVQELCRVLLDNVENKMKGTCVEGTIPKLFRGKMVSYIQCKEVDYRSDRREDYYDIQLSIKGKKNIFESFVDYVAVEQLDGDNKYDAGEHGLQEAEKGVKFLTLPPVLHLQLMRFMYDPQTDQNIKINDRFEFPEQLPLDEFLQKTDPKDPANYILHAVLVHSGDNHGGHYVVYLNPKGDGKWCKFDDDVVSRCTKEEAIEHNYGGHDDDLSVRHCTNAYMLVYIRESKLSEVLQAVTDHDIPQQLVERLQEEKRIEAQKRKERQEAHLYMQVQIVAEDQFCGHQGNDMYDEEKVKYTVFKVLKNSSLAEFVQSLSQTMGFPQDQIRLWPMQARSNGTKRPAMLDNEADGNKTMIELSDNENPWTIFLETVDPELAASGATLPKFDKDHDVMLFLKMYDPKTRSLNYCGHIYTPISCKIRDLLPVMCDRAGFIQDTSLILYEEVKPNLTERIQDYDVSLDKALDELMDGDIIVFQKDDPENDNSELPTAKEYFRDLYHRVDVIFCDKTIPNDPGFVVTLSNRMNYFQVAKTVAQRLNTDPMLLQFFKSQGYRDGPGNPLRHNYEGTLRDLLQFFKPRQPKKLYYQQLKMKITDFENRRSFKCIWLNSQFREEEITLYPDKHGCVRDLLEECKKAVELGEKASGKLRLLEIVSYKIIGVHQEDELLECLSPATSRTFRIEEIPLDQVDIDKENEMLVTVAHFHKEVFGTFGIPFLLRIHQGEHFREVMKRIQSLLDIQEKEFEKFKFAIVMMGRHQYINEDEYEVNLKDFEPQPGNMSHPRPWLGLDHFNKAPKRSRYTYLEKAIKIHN
# UniProt P19474: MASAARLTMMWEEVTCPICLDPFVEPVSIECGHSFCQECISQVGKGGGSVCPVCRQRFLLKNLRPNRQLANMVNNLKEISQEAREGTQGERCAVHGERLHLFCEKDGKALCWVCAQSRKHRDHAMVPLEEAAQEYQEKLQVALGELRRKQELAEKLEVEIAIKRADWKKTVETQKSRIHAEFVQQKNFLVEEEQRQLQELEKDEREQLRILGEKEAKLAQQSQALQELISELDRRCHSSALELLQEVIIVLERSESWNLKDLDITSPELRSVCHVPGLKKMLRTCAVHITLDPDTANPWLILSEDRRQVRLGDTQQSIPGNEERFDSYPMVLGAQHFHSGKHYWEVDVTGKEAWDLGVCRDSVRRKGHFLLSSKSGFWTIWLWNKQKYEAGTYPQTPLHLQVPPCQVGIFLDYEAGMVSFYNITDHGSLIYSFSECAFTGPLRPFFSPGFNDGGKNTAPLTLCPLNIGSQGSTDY
# Molecular target: HA-IDO1 (indoleamine 2,3 dioxygenase 1) expressed in HCT116 and SW480 cells (not stated (human or mouse cDNA cloned)) (UniProt P14902)
# Assay: affinity purification with mass spectrometry; HCT116 and SW480 cells transfected with HA-IDO1 or vector; lysates immunoprecipitated with HA-beads; washed six times (150 mM NaCl, 10 mM HEPES pH 7.4, 0.1% NP-40); eluted with 1 M glycine pH 3.0; MS
row,binding,Substance
1,binds,"USP5, endogenous in CRC cells (from UniProt P45974 1-858)"
2,binds,"USP7, endogenous in CRC cells (from UniProt Q93009 1-1102)"
3,binds,"tripartite motif containing 21 (TRIM21), endogenous in CRC cells (from UniProt P19474 1-475)"

# Reference: PMC9513055
